Assay results published in PMC6901512.
These are yes or no findings as the source states them, for the method shown. For part of these data: Binding seen in cells or lysates may run through a third protein. Some entries that bind do so weakly or less than the wild type.

The chains behind the UniProt entries cited, without tags or fusion partners.
UniProt P03165: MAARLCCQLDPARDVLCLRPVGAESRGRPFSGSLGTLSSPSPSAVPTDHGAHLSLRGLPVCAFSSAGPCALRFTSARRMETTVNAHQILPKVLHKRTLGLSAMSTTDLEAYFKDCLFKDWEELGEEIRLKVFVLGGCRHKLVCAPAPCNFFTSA

What was measured:
[1] = target: T1, endogenous MARCH5 (human (endogenous in HEK293T)) (UniProt Q9NX47); assay: co-IP; HEK293T cells transfected with HBx-Flag; lysates immunoprecipitated with anti-MARCH5 antibody (endogenous MARCH5)
T1 sequence: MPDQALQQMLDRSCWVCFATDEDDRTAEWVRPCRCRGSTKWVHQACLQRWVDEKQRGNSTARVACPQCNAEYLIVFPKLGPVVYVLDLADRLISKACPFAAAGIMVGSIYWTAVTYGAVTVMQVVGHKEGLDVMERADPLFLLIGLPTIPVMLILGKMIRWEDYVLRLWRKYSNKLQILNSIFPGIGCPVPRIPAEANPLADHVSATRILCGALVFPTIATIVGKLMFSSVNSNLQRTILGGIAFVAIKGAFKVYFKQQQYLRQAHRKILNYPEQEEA

[2] = target: HBx-Flag (hepatitis B virus X protein, wild type) (hepatitis B virus) (UniProt P03165); assay: cross-linking; Huh7 cell lysates incubated with 1 mM DSS for 30 min at room temperature, quenched with 10 mM Tris-HCl, sample buffer without SDS and β-mercaptoethanol, SDS-PAGE, blot
[3] = target: HBx-Flag (hepatitis B virus X protein, wild type) (hepatitis B virus) (UniProt P03165); assay: semi-denaturing detergent agarose gel electrophoresis (SDD-AGE); Huh7 cells transfected with HBx-Flag or HBx-Mito-Flag for 36 h, lysed directly in sample buffer without β-mercaptoethanol (2% SDS), 2% agarose gel, blot

Measured: binding

HBx-Flag (hepatitis B virus X protein, wild type) (from UniProt P03165 1-154)
binds: all assays above
